{
  "source": "PubChem BioAssay AID1347076",
  "about": "(National Center for Advancing Translational Sciences (NCATS), 2019)",
  "note": "Out of some 400,000 compounds screened, about 13,000 (3.2%) were called active. The inconclusive results got no clear call from the source; some entries with a clear call stand among them for comparison. Calls follow the shape of the dose curve; as a rule, active = well fitted cell-killing curve with a large enough effect; inconclusive = small, poorly fitted or top-dose-only effect, or effect the other way; inactive = flat fitted curve, though single readings scatter. Where the call is inconclusive, the potency comes from a doubtful curve fit. Where a SMILES comes first, the peptide text is derived from it. The star is where a group is joined. Boc = CC(C)(C)OC(=O)*",
  "data": [
    {"test": "qHTS assay for MDR1-selective chemotherapeutics: Primary screen using the drug-selected MDR subline cells KB-V1; also: nearly all actives have a fitted effect of over 60% in size; also: potency is read from the fitted curve at half-maximal effect; as to activity change, negative = cytotoxicity: % is scaled to controls: 0 for no effect and ±100 for the full control effect", "conditions": "KB-V1 MDR cells viability, CellTiter-Glo, 72 h; activity change, negative = cytotoxicity: at 46.1 µM (top of the series)", "summary_of_the_method": "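Cytotoxicity toward P-gp-expressing KB-V1 cells was determined as loss of CellTiter-Glo luminescence after 72 h at 37 degrees C. Compounds were tested in quantitative HTS format across a concentration range, with curves fitted to normalized data.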", "values": [
      {"smiles": "O=C(NC1CCCC1)C(c1ccsc1)N(C(=O)Cc1cccs1)c1ccc(F)cc1", "note": "(configuration not stated)", "Potency": "inactive"},
      {"smiles": "COc1cc(Cl)c(C)cc1NC(=O)c1ccccc1NC(=O)CN1CCN(C(C)=O)CC1", "Potency": "inactive"},
      {"smiles": "Cc1ccc(S(=O)(=O)NC(C(=O)N2CCOCCOCCOCCOCC2)c2ccccc2)cc1", "note": "(configuration not stated)", "Potency": "inconclusive: 0.461 µM [cytotoxic, partial curve, poor fit]"},
      {"smiles": "NS(=O)(=O)c1ccc(N2C(=O)C(=O)/C(=C(/O)c3ccccc3)C2c2ccc(Cl)cc2)cc1", "note": "(configuration not stated)", "Potency": "inactive"},
      {"smiles": "CC1=C(O)C(=O)OC1c1c(Cl)cccc1Cl", "note": "(configuration not stated)", "activity change, negative = cytotoxicity": "inconclusive: 16.3%"},
      {"smiles": "O=C1c2cccnc2Nc2ccccc2N1CCCF", "Potency": "inconclusive: 29.1 µM [cytotoxic, single point]"},
      {"smiles": "Cc1cc([N+](=O)[O-])ccc1-c1ccc(/C=N/NC(=O)c2ccc(Br)o2)o1", "Potency": "inconclusive: 20.6 µM [cytotoxic, single point]"},
      {"smiles": "CCc1cc(/C(Cc2ccc3ccccc3n2)=N\\O)c(O)cc1O", "Potency": "inconclusive: 29.1 µM [cytotoxic, single point]"},
      {"smiles": "NS(=O)(=O)c1ccc(-n2nncc2-c2ccco2)cc1", "Potency": "inactive"},
      {"smiles": "Cc1ccc(Nc2nc3nonc3[nH]c2=O)cc1", "Potency": "inconclusive: 29.1 µM [cytotoxic, single point]"},
      {"smiles": "CC(C)OCC(O)CS(=O)Cc1ccccc1", "note": "(configuration not stated)", "Potency": "inactive"},
      {"smiles": "CCOC(=O)C1CCCN(C(=O)c2ccccc2Oc2ccccc2)C1", "note": "(configuration not stated)", "Potency": "inconclusive: 13 µM [cytotoxic, partial curve]"},
      {"smiles": "COc1ccccc1-c1nnc(NC(C)=O)s1", "Potency": "inactive"},
      {"smiles": "COc1ccc(-c2nc3cc(NC(=O)COc4ccccc4C)ccc3o2)cc1", "Potency": "inactive"},
      {"smiles": "CCC(C)C(NC(=O)C(C)NC(=O)CNC(=O)OC(C)(C)C)C(N)=O", "note": "(stereo not drawn) (Boc-Gly-Ala-Ile-NH2; configuration not given here)", "Potency": "inconclusive: 25.9 µM [rising, single point]"},
      {"smiles": "COc1ccccc1NS(=O)(=O)c1cccc(C(=O)NCC(c2ccco2)N2CCCCC2)c1", "note": "(configuration not stated)", "Potency": "inactive"},
      {"smiles": "COc1ccc(NC(=O)Cn2nnc(C(=O)NCc3cccs3)c2N)cc1OC", "Potency": "inactive"},
      {"smiles": "COCCN(Cc1ccco1)C(=O)C1CCCN(c2ncnc3c2nc2n3CCCCC2)C1", "note": "(configuration not stated)", "Potency": "inconclusive: 0.731 µM [cytotoxic, full curve]"},
      {"smiles": "O=S(=O)(c1ccccc1)N(C1=NCCS1)S(=O)(=O)c1ccccc1", "Potency": "active: 20.6 µM"},
      {"smiles": "COC[C@H]1CCCN1[C@@H]1CS(=O)(=O)N[C@H]1COCc1ccccc1", "Potency": "inactive"},
      {"smiles": "Cc1ccc(CN2CCN(Cc3ccc4cc(F)ccc4n3)CC2CCO)o1", "note": "(configuration not stated)", "Potency": "inactive"},
      {"smiles": "O=C(c1cnn(-c2ccccc2)c1)c1ccccc1O", "Potency": "inconclusive: 29.1 µM [cytotoxic, single point]"},
      {"smiles": "CNC(=O)NNC(=O)c1nc(-c2ccccc2)c(C)o1", "Potency": "inactive"},
      {"smiles": "Cc1cccc(N2CCN(C(=O)c3cc(=O)[nH]c4ccccc34)CC2)c1C", "Potency": "inconclusive: 0.366 µM [cytotoxic, full curve, poor fit]"},
      {"smiles": "CCCCCCCN(c1ccccc1)[C@@H]1C[C@H]2CCCC(=O)N3CC[C@@H](C1)[C@@H]23", "Potency": "inconclusive: 29.1 µM [cytotoxic, single point]"},
      {"smiles": "COc1cccc(CNC(=O)CNC(=S)N(Cc2ccccc2)Cc2ccccc2F)c1", "Potency": "inconclusive: 8.2 µM [cytotoxic, partial curve]"},
      {"smiles": "COc1ccc(-c2cc(C(F)(F)F)c(C#N)c(=O)[nH]2)cc1", "Potency": "inactive"},
      {"smiles": "COc1ccc(C(CC(=O)Nc2ccc(Cl)cc2F)NC(=O)C(F)(F)F)cc1", "note": "(configuration not stated)", "Potency": "active: 8.2 µM"},
      {"smiles": "C/C(=N\\NC(=O)c1ccc(N2CCCC2=O)cc1)c1ccncc1", "Potency": "inconclusive: 20.6 µM [cytotoxic, single point]"},
      {"smiles": "COC(=O)CC1Oc2ccccc2-n2cc(-c3ccc(F)cc3)nc21", "note": "(configuration not stated)", "Potency": "inactive"},
      {"smiles": "CCCCN1CCCCC1(C)C(=O)NCc1cccc(OC)c1", "note": "(configuration not stated)", "Potency": "inactive"},
      {"smiles": "CCCCC(=O)Nc1ccc(Br)cc1C(=O)O", "Potency": "inconclusive: 29.1 µM [rising, single point]"},
      {"smiles": "CCCCC[C@H](C)N1C[C@@H](COCc2ccccc2)Oc2cc(N3CCC[C@H]3C(N)=O)ccc2S1(=O)=O", "Potency": "inconclusive: 16.4 µM [cytotoxic, partial curve]"},
      {"smiles": "COc1ccc(/C=C2\\Oc3cc(OCC(=O)N4CCC[C@H]4C(=O)O)ccc3C2=O)cc1OC", "Potency": "inconclusive: 23.1 µM [rising, single point]"},
      {"smiles": "COc1ccc(C2C(=O)N(C3CCCCC3)CC(=O)N2CC2COc3ccccc3O2)cc1", "note": "(configuration not stated)", "Potency": "inactive"},
      {"smiles": "CCOC(=O)N1CCN(C(=O)c2oc3ccc(S(=O)(=O)N4CCCCC4)cc3c2C)CC1", "Potency": "inconclusive: 4.61 µM [cytotoxic, full curve, poor fit]"},
      {"smiles": "COC(=O)c1sccc1S(=O)(=O)N(CC(=O)Nc1cccc(C)c1C)c1ccc(C)c(C)c1", "Potency": "inactive"},
      {"smiles": "Cc1ccccc1CN1CCC(CNC(=O)Nc2ccc(F)cc2F)CC1", "Potency": "inconclusive: 20.6 µM [cytotoxic, partial curve, poor fit]"},
      {"smiles": "Nc1nsc2ccccc12", "Potency": "inconclusive: 7.31 µM [cytotoxic, partial curve, poor fit]"},
      {"smiles": "Cc1cc(C)nc(NS(=O)(=O)c2ccc(NC(=S)NC(=O)c3cccnc3)cc2)n1", "Potency": "inactive"},
      {"smiles": "Cc1sc2ncnc(N3CCC(C(=O)N4CC(C)SC4=Nc4ccc(Cl)cc4)CC3)c2c1C", "note": "(configuration not stated)", "Potency": "inactive"},
      {"smiles": "CC(=O)Nc1cccc(-c2ccnc3c2CC(C)(C(=O)Nc2ccc(Cl)cc2)O3)c1", "note": "(configuration not stated)", "Potency": "inconclusive: 29.1 µM [cytotoxic, single point]"},
      {"smiles": "N#CC1(Nc2ccc([N+](=O)[O-])cc2)CCCC1", "Potency": "inconclusive: 18.4 µM [cytotoxic, single point]"},
      {"smiles": "Oc1ccccc1-c1cc(-c2ccccc2Cl)[nH]n1", "Potency": "active: 20.6 µM"},
      {"smiles": "Cc1ccn2c(NC3CCCC3)c(-c3ccncc3)nc2c1", "Potency": "inactive"},
      {"smiles": "Cc1cccc(NC(=O)CSC2=Nc3ccccc3C3=NC(CCC(=O)NCc4ccco4)C(=O)N23)c1", "note": "(configuration not stated)", "Potency": "inconclusive: 29.1 µM [rising, single point]"},
      {"smiles": "COc1ccc(C(c2oc(CO)cc(=O)c2O)c2oc(CO)cc(=O)c2O)cc1", "Potency": "inconclusive: 23.1 µM [rising, partial curve, poor fit]"},
      {"smiles": "c1ccn2cc(C34CC5CC(CC(C5)C3)C4)nc2c1", "Potency": "inactive"},
      {"smiles": "Cn1c(CNc2ccccn2)c(C#N)c2ccccc21", "Potency": "active: 23.1 µM"},
      {"smiles": "CCCCn1c(SCC(=O)Nc2nccs2)nc2ccccc2c1=O", "Potency": "inconclusive: 1.3 µM [cytotoxic, full curve]"},
      {"smiles": "COc1ccc(-c2cc(NC(C)=O)c3ncc(-c4ccc(OC)c(OC)c4)n3c2)cc1OC", "Potency": "active: 11.6 µM"},
      {"smiles": "C/C(=N/N=C(/N)SCc1ccccc1)C(C)(C)C", "Potency": "inconclusive: 11.6 µM [rising, partial curve, poor fit]"},
      {"smiles": "O=C1C(Cl)=C(N2CCCC2)C(=O)N1c1ccc(F)cc1", "Potency": "inconclusive: 13 µM [rising, partial curve, poor fit]"},
      {"smiles": "CCN(C)C1CN(Cc2cn(Cc3cccc(Cl)c3)nn2)S(=O)(=O)C1", "note": "(configuration not stated)", "Potency": "inactive"},
      {"smiles": "C#CCN1C(=O)C(O)(c2c(C)[nH]c3ccccc23)c2ccccc21", "note": "(configuration not stated)", "Potency": "inconclusive: 32.6 µM [cytotoxic, single point]"},
      {"smiles": "C/C(CC(=O)NC1CCCC1)=N\\NC(=O)c1ccc([N+](=O)[O-])c(Cl)c1", "Potency": "inactive"},
      {"smiles": "COc1ccc(Cl)cc1N1CCN(CCNC(=O)Nc2ccccc2C)CC1", "Potency": "inconclusive: 11.6 µM [cytotoxic, partial curve]"},
      {"smiles": "CC(C)(C)NCc1cc(Cl)ccc1OCc1cccs1", "Potency": "inconclusive: 13 µM [cytotoxic, partial curve]"},
      {"smiles": "CN(C)C(=O)CSc1nc2ccccc2n1Cc1ccccc1", "Potency": "inconclusive: 8.2 µM [cytotoxic, partial curve]"},
      {"smiles": "Cc1ccccc1NC(=O)c1ccc(OCc2c(C)noc2C)cc1", "Potency": "inconclusive: 29.1 µM [cytotoxic, single point]"},
      {"smiles": "Cc1onc(-c2ccc(Cl)cc2)c1-c1ccnn1S(=O)(=O)c1ccc(Cl)cc1", "Potency": "inconclusive: 32.6 µM [cytotoxic, single point]"},
      {"smiles": "C#CCNC(=O)C[C@@H]1C[C@@]2(C(=O)OC)CC(C)(C)CC=C2N(Cc2ccco2)C1=O", "Potency": "inconclusive: 20.6 µM [cytotoxic, partial curve, poor fit]"},
      {"smiles": "Cc1ccsc1C(=O)N1CCN(c2ncc(C(F)(F)F)cc2Cl)CC1", "Potency": "inconclusive: 6.51 µM [cytotoxic, partial curve]"},
      {"smiles": "COC(=O)c1cc(C(=O)c2ccc(Cl)cc2Cl)cn1C", "Potency": "active: 13 µM"},
      {"smiles": "CC(C)(C)OC(=O)N1CCC(c2c(C(=O)N3CCN(Cc4ccccc4)CC3)cnn2-c2cccc(Cl)c2)CC1", "Potency": "inactive"},
      {"smiles": "CN(C)S(=O)(=O)N1CCC(n2c(C(F)(F)F)nc3cccnc32)CC1", "Potency": "inconclusive: 18.4 µM [cytotoxic, single point]"},
      {"smiles": "CCCCn1c(=O)nc2n(-c3ccc(Cl)cc3)c3ccccc3cc-2c1=O", "Potency": "active: 8.2 µM"},
      {"smiles": "Cc1nc2nc(SCC(=O)NCc3ccco3)nn2c(C)c1Cc1c(F)cccc1Cl", "Potency": "inconclusive: 23.1 µM [cytotoxic, single point]"},
      {"smiles": "COc1ccc(NC(=O)CN(C)S(=O)(=O)c2ccc3c(c2)n(C)c(=O)c(=O)n3C)cc1", "Potency": "inconclusive: 29.1 µM [rising, single point]"},
      {"smiles": "COc1ccc(NC(=O)c2cc(-c3ccc(F)cc3OC)n[nH]2)cc1OC", "Potency": "inactive"},
      {"smiles": "COc1ccccc1NC(=O)CN1CCC(c2nc3ccccc3[nH]2)CC1", "Potency": "inconclusive: 23.1 µM [cytotoxic, single point]"},
      {"smiles": "Cc1ccccc1N(Cc1ccccc1F)S(C)(=O)=O", "Potency": "inconclusive: 29.1 µM [cytotoxic, single point]"}
    ]}
  ]
}
